Measurements as given in PubChem BioAssay AID493014 (National Center for Advancing Translational Sciences (NCATS), 2011).
This is one part of the list. Shown are side measurements of this screen, not its main read-out; they come without a call. Most of these compounds were active or inconclusive in the main read-out, so they are no random draw. The note in brackets gives the kind of curve behind each potency; many fits are weak.

Assay: qHTS Assay to Find Inhibitors of Chronic Active B-Cell Receptor Signaling
Details: ABC-DLBCL IkBa-CBG/CBR reporter, luminescence ratio (green luciferase fused to IkBa over red control in TMD8 lymphoma cells), 4 h
Procedure, shortened: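 Cell line TMD8 (human ABC DLBCL), stably expressing tet-inducible CBG68-IkBa fusion and CBR; IMDM/0.5% FBS; cpd up to 46 uM; dox induction, 4 h, 37C/5% CO2; dual luminescence; green/red ratio; MG132 control.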

[1] = measured here: CBR red luminescence, cell number
[2] = measured here: IkBa-CBG green luminescence

Row | SMILES | AC50 [1] | AC50 [2]
1 | COc1ccc(C(=O)O/N=C(\N)c2ccccn2)c(OC)c1 | 0.398 µM [falling, full curve] | 
2 | C=CC(=O)Nc1ccc(N(C)c2ccnc(Nc3ccc(N4CCN(C)CC4)cc3)n2)cc1 | 16.4 µM [falling, single point] | 
3 | CN(CC(=O)Nc1cccc(F)c1)C(=O)CNC(=O)Cc1cccc2ccccc12 | 0.58 µM [rising, full curve, poor fit] | 
4 | CC(=O)NC(=S)Nc1sc2c(c1C(N)=O)CCC(C)C2 (stereo unspecified) | 35.5 µM [rising, single point] | 
5 | Cc1cc(=O)oc2cc(OCc3ccc(C(=O)OCC(=O)NC4CCS(=O)(=O)C4)cc3)ccc12 (stereo unspecified) | 7.08 µM [falling, full curve, poor fit] | 
6 | COC(=O)CNC(=O)CSc1nc(N)cc(=O)[nH]1 | 0.82 µM [rising, partial curve, poor fit] | 
7 | Cc1ccc(CNC(=O)Nc2ccc(Cl)cc2)cc1 | 0.398 µM [rising, full curve, poor fit] | 
8 | Cc1ccc(NS(=O)(=O)c2ccc(N/N=C/c3ccncc3)c([N+](=O)[O-])c2)c(C)c1 | 20.6 µM [rising, single point] | 
9 | COc1cc(/C=C2\NC(=S)NC2=O)ccc1OCc1cccc(C(=O)O)c1 | 10 µM [falling, partial curve] | 
10 | CC(C(=O)NCc1ccccc1)N(Cc1ccccc1Cl)C(=O)c1snc(C(N)=O)c1N (stereo unspecified) | 0.891 µM [falling, full curve] | 
11 | CCOC(=O)c1sc(NC(=O)/C=C/c2ccc(F)cc2)nc1C | 0.282 µM [falling, full curve, poor fit] | 
12 | Cc1ccnc(NC(=S)NC(=O)c2cncc(Br)c2)c1 | 1.64 µM [rising, full curve, poor fit] | 
13 | CCOc1ccc(C2=CS/C(=C(\C#N)c3nnc4n3CCCCC4)N2CC)cc1 | 3.66 µM [falling, full curve, poor fit] | 
14 | COc1ccccc1-c1nnc(NC(=O)c2ccc(S(=O)(=O)N(C)C)cc2)o1 | 3.26 µM [falling, partial curve, poor fit] | 
15 | Nc1ccc2nc(CCCO)[nH]c2c1 | 17.8 µM [falling, single point] | 
16 | CCOC(=O)c1cnn(-c2nc3c(C)cccc3s2)c1C | 10.3 µM [rising, partial curve] | 
17 | Nc1cc(OC(=O)c2cccs2)nn1S(=O)(=O)c1ccccc1 | 20.6 µM [falling, partial curve, poor fit] | 
18 | Cc1ccsc1C=Nc1ccc(O)cc1 | 6.31 µM [falling, single point] | 
19 | Cc1ccn2c(NCc3ccccc3)c(-c3cccc(SC4CCCCC4)c3)nc2c1 | 29.1 µM [falling, single point] | 
20 | O=C(CSc1ccccc1)NCc1ccc(F)cc1 | 1 µM [rising, full curve, poor fit] | 
21 | COc1ccc(S(=O)(=O)CCC(=O)N(C)c2ccc(OC)cc2OC)cc1 | 29.1 µM [rising, single point] | 

Row | SMILES | AC50 [1] | AC50 [2]
22 | COc1cc(OC)c(NC(=O)c2cc(S(=O)(=O)N3CCOCC3)cn2C)cc1Cl | 6.31 µM [rising, single point] | 
23 | CC(=O)c1ccc(OCc2cc(C(=O)NC3CCCCC3)no2)cc1 | 5.01 µM [falling, full curve] | 
24 | CCOc1ccccc1N | 29.1 µM [falling, single point] | 
25 | COc1ccccc1C(=O)n1nc(-c2ccccc2)nc1N | 4.61 µM [falling, full curve, poor fit] | 
26 | CC(C)Nc1c(N)c(=O)oc2ccccc12 | 10 µM [falling, partial curve] | 
27 | CC1CCN(C(=O)c2cc(-c3ccco3)on2)CC1 | 0.794 µM [rising, full curve, poor fit] | 
28 | Cc1ccc(CN(Cc2ccco2)C(=S)NCC(=O)NCc2cccnc2)cc1 | 0.224 µM [falling, full curve, poor fit] | 
29 | COc1cccc(-c2sc3ccc(OC)cc3c2C#CCCO)c1 | 4.11 µM [rising, full curve, poor fit] | 
30 | Nc1cc(C(=O)OCC(=O)Nc2cccc(S(=O)(=O)N3CCOCC3)c2)ccc1Cl | 16.4 µM [falling, single point] | 
31 | COc1ccc(-c2cc(C(=O)NCc3ccccc3)no2)cc1OC | 10 µM [falling, partial curve] | 
32 | CCc1ccc(OC(=O)c2ccn(CC)n2)cc1 | 11.2 µM [rising, single point] | 
33 | CCOc1ccccc1N1CCN(C(=O)c2ccc(Cl)c(S(=O)(=O)N3CCCCC3)c2)CC1 | 14.6 µM [falling, partial curve, poor fit] | 
34 | c1cn(C23CC4CC(CC(C4)C2)C3)cn1 | 20.6 µM [rising, single point] | 
35 | C=CCOc1c(Cl)cc(/C=N/O)cc1OC | 10 µM [rising, partial curve] | 
36 | Cc1nc([N+](=O)[O-])cn1-c1ccc(N)cc1 | 32.6 µM [rising, partial curve, poor fit] | 
37 | Cc1ccc(C(=O)NCCSc2ccc(Cl)cc2)cc1[N+](=O)[O-] | 0.562 µM [rising, full curve] | 
38 | Cc1cccc(NC(=O)C(C)N2C(=O)C3C4CC(C(Br)C4Br)C3C2=O)c1 (stereo unspecified) | 35.5 µM [falling, single point] | 
39 | CCOc1cc(C=C(C(=O)OC)C(=O)OC)ccc1OCc1ccc([N+](=O)[O-])cc1 | 8.2 µM [falling, partial curve] | 
40 | Cc1csc(NC(=O)CCC(=O)N(CC(=O)NC2CCCCC2)c2ccccc2)n1 | 6.31 µM [falling, full curve] | 
41 | CC[C@]12c3[nH]c4ccc(Cl)cc4c3CCN1C(=O)[C@@H](CC(=O)NCc1cccc(C(F)(F)F)c1)C[C@@H]2C(=O)N1CCN(C(=O)c2ccco2)CC1 | 3.26 µM [falling, full curve] | 7.31 µM [rising, partial curve, poor fit]
42 | CN1C(=O)NC(c2cccc([N+](=O)[O-])c2)C2=C1CCCC2=O (stereo unspecified) | 20 µM [falling, single point] | 

Row | SMILES | AC50 [1] | AC50 [2]
43 | O=C(Nc1nc2ccccc2[nH]1)C12CC3CC(CC(C3)C1)C2 | 6.51 µM [rising, single point] | 
44 | Cc1cc(Cl)cc2sc(NC(=O)c3ccco3)nc12 | 11.2 µM [falling, partial curve] | 
45 | C=C(C)C(C)(C#CCN1CCCC1)OC(C)=O (stereo unspecified) | 13 µM [falling, partial curve, poor fit] | 
46 | CCC1CCCCN1S(=O)(=O)c1ccc(NC(=O)c2nc(S(C)(=O)=O)ncc2Cl)cc1 (stereo unspecified) | 35.5 µM [falling, single point] | 
47 | CCCCC#Cc1ccc(C(=O)NNC(=O)Nc2cc(Cl)cc(Cl)c2)o1 | 35.5 µM [falling, partial curve, poor fit] | 
48 | NC(=S)NN=C(Cc1ccccc1)Cc1ccccc1 | 25.1 µM [falling, single point] | 17.8 µM [falling, single point]
49 | COc1ccccc1Oc1ccc(NC(=O)c2ccccc2)cc1 | 15.8 µM [falling, single point] | 
50 | C#CCOCCOCCOCCNc1nc(N2CCN(C(=O)CCCCCCCCCCNC(=O)[C@@H](CCC(=O)O)n3cc(CCCCCN)nn3)CC2)nc(N2CCN(C(=O)CCCCCCCCCCNC(=O)[C@H](CO)n3cc(CCCCCN)nn3)CC2)n1 | 20.6 µM [rising, partial curve, poor fit] | 
51 | O=S(=O)(c1ccc(Cl)cc1)n1cccn1 | 4.47 µM [rising, partial curve, poor fit] | 
52 | O=C(NC1CCCCC1)c1ccc(S(=O)(=O)c2ccccc2Cl)c([N+](=O)[O-])c1 | 32.6 µM [rising, partial curve, poor fit] | 
53 | O=C(/C=C1\NC2(CCCC2)Cc2ccccc21)C(=O)N/N=C/c1ccc(O)c(O)c1 | 13 µM [falling, partial curve] | 
54 | CCN1CCN(Cc2c(O)ccc3c2O/C(=C\C=C\c2ccccc2OC)C3=O)CC1 | 3.26 µM [falling, partial curve] | 
55 | CC(=O)Nc1cccc(NC(=O)COc2ccc3c(c2)OCO3)c1 | 3.98 µM [falling, full curve] | 
56 | COc1ccc(-c2ccc(-c3nnc(Cc4ccc(OC)c(OC)c4)o3)cc2)cc1 | 35.5 µM [rising, single point] | 
57 | COCCNC(=O)c1ccc2c(c1)ncn2-c1ccc(F)c(F)c1 | 3.98 µM [rising, full curve] | 
58 | N#Cc1ccc(-c2csc(NNC(=O)c3ccccc3)n2)cc1 | 35.5 µM [rising, single point] | 
59 | OCCNCCSc1nc(C2CCCCC2)n(-c2ccccc2Cl)n1 | 22.4 µM [falling, partial curve, poor fit] | 
60 | Cc1cc(NC(=O)c2ccccc2)n(-c2nc3ccccc3[nH]2)n1 | 0.251 µM [falling, full curve, poor fit] | 
61 | Cc1onc(-c2ccc3c(c2)OCO3)c1-c1ccc2[nH]ccc2c1 | 25.1 µM [falling, partial curve, poor fit] | 
62 | CCCCn1c(N)c(N(C)C(=O)c2ccc(-n3cccn3)cc2)c(=O)[nH]c1=O | 29.1 µM [falling, single point] | 29.1 µM [rising, partial curve, poor fit]
63 | CC(=O)NCc1ccc(C(=O)CCl)cc1 | 35.5 µM [falling, single point] | 

Arranged by formula weight (ascending): some entries from above.
Row | SMILES | AC50 [1] | AC50 [2]
26 | CC(C)Nc1c(N)c(=O)oc2ccccc12 | 10 µM [falling, partial curve] | 
27 | CC1CCN(C(=O)c2cc(-c3ccco3)on2)CC1 | 0.794 µM [rising, full curve, poor fit] | 
48 | NC(=S)NN=C(Cc1ccccc1)Cc1ccccc1 | 25.1 µM [falling, single point] | 17.8 µM [falling, single point]
16 | CCOC(=O)c1cnn(-c2nc3c(C)cccc3s2)c1C | 10.3 µM [rising, partial curve] | 
55 | CC(=O)Nc1cccc(NC(=O)COc2ccc3c(c2)OCO3)c1 | 3.98 µM [falling, full curve] | 
31 | COc1ccc(-c2cc(C(=O)NCc3ccccc3)no2)cc1OC | 10 µM [falling, partial curve] | 
59 | OCCNCCSc1nc(C2CCCCC2)n(-c2ccccc2Cl)n1 | 22.4 µM [falling, partial curve, poor fit] | 
9 | COc1cc(/C=C2\NC(=S)NC2=O)ccc1OCc1cccc(C(=O)O)c1 | 10 µM [falling, partial curve] | 
53 | O=C(/C=C1\NC2(CCCC2)Cc2ccccc21)C(=O)N/N=C/c1ccc(O)c(O)c1 | 13 µM [falling, partial curve] | 
54 | CCN1CCN(Cc2c(O)ccc3c2O/C(=C\C=C\c2ccccc2OC)C3=O)CC1 | 3.26 µM [falling, partial curve] | 
19 | Cc1ccn2c(NCc3ccccc3)c(-c3cccc(SC4CCCCC4)c3)nc2c1 | 29.1 µM [falling, single point] | 
40 | Cc1csc(NC(=O)CCC(=O)N(CC(=O)NC2CCCCC2)c2ccccc2)n1 | 6.31 µM [falling, full curve] | 
38 | Cc1cccc(NC(=O)C(C)N2C(=O)C3C4CC(C(Br)C4Br)C3C2=O)c1 (stereo unspecified) | 35.5 µM [falling, single point] | 
5 | Cc1cc(=O)oc2cc(OCc3ccc(C(=O)OCC(=O)NC4CCS(=O)(=O)C4)cc3)ccc12 (stereo unspecified) | 7.08 µM [falling, full curve, poor fit] | 
